Assay results as given in PMC10779018.

Biological target: Phosphorylated adapter RNA export protein (PHAX), HA-tagged
Assay: co-IP; HEK293T cells co-transfected with pCD513B-FLAG-METTL21C and pCD513B-HA-PHAX or pCD513B-HA-PHAX (K381); precipitated by HA and by FLAG, detected by blot

- binding: binds
B1: Methyltransferase-like 21C (METTL21C), FLAG-tagged (enzyme, UniProt E1BSL9 1-249)
chain: MQRATDCQAVEEAACEEPSDSENCTSTAESNSDSPVILKILQNWTPTVSHYFDKEHYTYAGQHIVIQESIEHYGAVVWPGALALSQYLESNQERFNLKDKKVLEIGAGTGLVSIVASILGAYVTATDLPEVLENLSFNISRNTHTNTHKPEVRKLVWGEGLNEDFPLSTHHYDFILASDVVYHHTALDALLATMVYFCQPGTVLLWANKFRFSTDYEFLEQLSNVFDTSILAEFPESNVKLLKATVREN

These are yes or no findings as the source states them, for the method shown. Binding seen in cells or lysates may run through a third protein. Binding calls can cover weak binding; strength is not graded here. Sequences can lack the tags named with a protein.
